Test results: PMC6001059
No constants are given. Whether binding was seen depends on the method and setting. In cells and extracts the contact can be indirect. Some binding calls cover weakened binding; strength is not graded here.

Sequences of proteins named here, by UniProt entry; tags and fusion partners are left off.
UniProt P17679: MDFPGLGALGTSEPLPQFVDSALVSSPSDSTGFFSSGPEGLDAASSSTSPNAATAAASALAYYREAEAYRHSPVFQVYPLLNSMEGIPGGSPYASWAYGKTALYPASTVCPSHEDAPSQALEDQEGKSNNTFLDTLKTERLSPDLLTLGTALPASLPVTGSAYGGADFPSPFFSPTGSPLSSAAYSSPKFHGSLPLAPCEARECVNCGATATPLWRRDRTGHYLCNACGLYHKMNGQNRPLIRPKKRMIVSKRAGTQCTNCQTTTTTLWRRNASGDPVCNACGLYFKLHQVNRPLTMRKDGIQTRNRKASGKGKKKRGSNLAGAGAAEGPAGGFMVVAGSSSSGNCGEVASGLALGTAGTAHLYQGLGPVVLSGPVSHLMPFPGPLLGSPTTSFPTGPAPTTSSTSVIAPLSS

Assays:
[1] = biological target: C-terminally 3xFLAG-TEV-Avi tandem affinity tagged murine GATA1 (mouse) (UniProt P17679); assay: co-IP; immunoprecipitation with an anti-FLAG antibody; data not shown
[2] = biological target: C-terminally 3xFLAG-TEV-Avi tandem affinity tagged murine GATA1 (mouse) (UniProt P17679); assay: pull-down; streptavidin pulldown of biotinylated tagged GATA1 from nuclear extracts of transiently transfected HEK293 cells (24 h); ZNF143 detected by immunoblot

binding [1]: binds | binding [2]: binds
B1: endogenous transcription factor ZNF143 (protein, UniProt P52747 1-638)
chain: MLLAQINRDSQGMTEFPGGGMEAQHVTLCLTEAVTVADGDNLENMEGVSLQAVTLADGSTAYIQHNSKDAKLIDGQVIQLEDGSAAYVQHVPIPKSTGDSLRLEDGQAVQLEDGTTAFIHHTSKDSYDQSALQAVQLEDGTTAYIHHAVQVPQSDTILAIQADGTVAGLHTGDATIDPDTISALEQYAAKVSIDGSESVAGTGMIGENEQEKKMQIVLQGHATRVTAKSQQSGEKAFRCEYDGCGKLYTTAHHLKVHERSHTGDRPYQCEHAGCGKAFATGYGLKSHVRTHTGEKPYRCSEDNCTKSFKTSGDLQKHIRTHTGERPFKCPFEGCGRSFTTSNIRKVHVRTHTGERPYYCTEPGCGRAFASATNYKNHVRIHTGEKPYVCTVPGCDKRFTEYSSLYKHHVVHTHSKPYNCNHCGKTYKQISTLAMHKRTAHNDTEPIEEEQEAFFEPPPGQGEDVLKGSQITYVTGVEGDDVVSTQVATVTQSGLSQQVTLISQDGTQHVNISQADMQAIGNTITMVTQDGTPITVPAHDAVISSAGTHSVAMVTAEGTEGEQVAIVAQDLAAFHTASSEMGHQQHSHHLVTTETRPLTLVATSNGTQIAVQLGEQPSLEEAIRIASRIQQGETPGLDD
